Assay results taken from US20220087996A1, “Histone acetylase p300 inhibitor and use thereof” (HINOVA PHARMACEUTICALS INC., priority 2018, published 2022).
Some results were stated once for a whole list of compounds, not compound by compound. For at least one compound, name, drawing or mass did not settle the structure.

System: CWR22RV1 cells
Experiment: Inhibition of proliferation of CWR22RV1 cells (CCK-8)
Format: cell-based, human
Details: 6 days culture, read-out: IC50 against CWR22RV1 cells (text)
Protocol: 1) CWR22RV1 cells were subcultured in cell culture medium, and the cells in good growth condition were seeded in a 96-well plate, 80 μL for each well, and the cell number in each well was 1500. The plate was incubated overnight in a 37° C., 5% CO2 cell incubator. 2) The drug was prepared as 30 mM stock solution with dimethyl sulfoxide (DMSO). Prior to use, the stock solution was diluted 3 times with DMSO, and then further diluted as 3-fold gradient to obtain 9 concentration gradients. Then, each concentration of compound was diluted 200 times with the culture solution (ensuring that the DMSO concentration in the culture system was 0.1%), and two replicate wells were set for each concentration. 20 μL of diluted compound solution was added to the cell culture well (with final concentrations of 10 μM, 3.3 μM. 1.1 μM . . . ), and the plate was gently shaken to mix. In addition, 3 negative control wells containing only cells and 3 blank control wells containing only culture medium were included (6 wells were each added 20 μL DMSO diluted 200 times with culture medium). 2. […] (2) The absorbance (OD value) was detected at 450 nm using a multifunctional microplate reader. (3) The data were analyzed by Dose-response-inhibition equation in the software GraphPad Prism6, and the IC50 value was obtained.

CNC(=O)Nc1ccc2c(c1)CC[C@@]21OC(=O)N(CC(=O)N2C(c3ccc(F)cc3C)CC[C@H]2C)C1=O (stereo partly shown) [Example 21]
IC50: ≤ 0.5 µM
